# Experimental data: the supplement of paper PMC8728848
# The other results are listed elsewhere or left out.
# Tests used:
# Assay in all cases: glycan array binding signal (z-score within array); higher = stronger binding
# Conditions in all cases: glycan notation: IUPAC condensed, linker removed
# [1] = molecular target: Neu5Ac(a2-3)Gal(b1-3)GlcNAc
# Procedure, shortened: (§1)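 From the Consortium for Functional Glycomics database, 3228 arrays were curated, keeping only those whose protein sequence was available. Binding is given as a within-array Z-score averaged across arrays sharing a protein sequence and across linkers. Negative Z-scores can be read as non-binding.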
# [2] = molecular target: Neu5Ac(a2-3)Gal(b1-3)GlcNAc(b1-2)Man
# Procedure, shortened: as §1
# [3] = molecular target: Neu5Ac(a2-3)Gal(b1-3)GlcNAc(b1-2)Man(a1-3)[GlcNAc(b1-4)][Neu5Ac(a2-3)Gal(b1-3)GlcNAc(b1-2)Man(a1-6)]Man(b1-4)GlcNAc(b1-4)GlcNAc
# Procedure, shortened: as §1
# [4] = molecular target: Neu5Ac(a2-3)Gal(b1-3)GlcNAc(b1-2)Man(a1-3)[Neu5Ac(a2-3)Gal(b1-3)GlcNAc(b1-2)Man(a1-6)]Man(b1-4)GlcNAc(b1-4)GlcNAc
# Procedure, shortened: as §1
# [5] = molecular target: Neu5Ac(a2-3)Gal(b1-3)GlcNAc(b1-2)[Neu5Ac(a2-3)Gal(b1-3)GlcNAc(b1-4)]Man(a1-6)[Neu5Ac(a2-3)Gal(b1-3)GlcNAc(b1-2)Man(a1-3)]Man(b1-4)GlcNAc(b1-4)GlcNAc
# Procedure, shortened: as §1
# [6] = molecular target: Neu5Ac(a2-3)Gal(b1-3)GlcNAc(b1-3)Gal(b1-3)GlcNAc
# Procedure, shortened: as §1
# [7] = molecular target: Neu5Ac(a2-3)Gal(b1-3)GlcNAc(b1-3)Gal(b1-4)GlcNAc
# Procedure, shortened: as §1
# [8] = molecular target: Neu5Ac(a2-3)Gal(b1-3)GlcNAc(b1-3)GalNAc
# Procedure, shortened: as §1
# [9] = molecular target: Neu5Ac(a2-3)Gal(b1-3)GlcNAc(b1-6)GalNAc
# Procedure, shortened: as §1
# [10] = molecular target: Neu5Ac(a2-3)Gal(b1-3)GlcNAc6S
# Procedure, shortened: as §1
# [11] = molecular target: Neu5Ac(a2-3)Gal(b1-3)[Fuc(a1-4)]GlcNAc
# Procedure, shortened: as §1
# [12] = molecular target: Neu5Ac(a2-3)Gal(b1-3)[Fuc(a1-4)]GlcNAc(b1-3)Gal(b1-3)[Fuc(a1-4)]GlcNAc
# Procedure, shortened: as §1
# [13] = molecular target: Neu5Ac(a2-3)Gal(b1-3)[Fuc(a1-4)]GlcNAc(b1-3)Gal(b1-4)[Fuc(a1-3)]GlcNAc
# Procedure, shortened: as §1
# [14] = molecular target: Neu5Ac(a2-3)Gal(b1-3)[GlcNAc(b1-6)]GalNAc
# Procedure, shortened: as §1
# [15] = molecular target: Neu5Ac(a2-3)Gal(b1-3)[Neu5Ac(a2-6)]GalNAc
# Procedure, shortened: as §1
# [16] = molecular target: Neu5Ac(a2-3)Gal(b1-3)[Neu5Ac(a2-6)]GlcNAc(b1-3)[Fuc(a1-3)[Gal(b1-4)]GlcNAc(b1-6)]Gal(b1-4)Glc
# Procedure, shortened: as §1
# [17] = molecular target: Neu5Ac(a2-3)Gal(b1-3)]Neu5Ac(a2-3)Gal(b1-4)]GlcNAc
# Procedure, shortened: as §1
# Neu5Ac(a2-3)Gal(b1-4)Glc = molecular target: Neu5Ac(a2-3)Gal(b1-4)Glc
# Procedure, shortened: as §1
# [18] = molecular target: Neu5Ac(a2-3)Gal(b1-4)GlcNAc
# Procedure, shortened: as §1
# [19] = molecular target: Neu5Ac(a2-3)Gal(b1-4)GlcNAc(b1-2)Man
# Procedure, shortened: as §1
# [20] = molecular target: Neu5Ac(a2-3)Gal(b1-4)GlcNAc(b1-2)Man(a1-3)[GlcNAc(b1-4)][Neu5Ac(a2-3)Gal(b1-4)GlcNAc(b1-2)Man(a1-6)]Man(b1-4)GlcNAc(b1-4)GlcNAc
# Procedure, shortened: as §1
# [21] = molecular target: Neu5Ac(a2-3)Gal(b1-4)GlcNAc(b1-2)Man(a1-3)[Neu5Ac(a2-3)Gal(b1-4)GlcNAc(b1-2)Man(a1-6)]Man(b1-4)GlcNAc(b1-4)GlcNAc
# Procedure, shortened: as §1
# [22] = molecular target: Neu5Ac(a2-3)Gal(b1-4)GlcNAc(b1-2)Man(a1-3)[Neu5Ac(a2-3)Gal(b1-4)GlcNAc(b1-2)Man(a1-6)]Man(b1-4)GlcNAc(b1-4)[Fuc(a1-6)]GlcNAc
# Procedure, shortened: as §1
# [23] = molecular target: Neu5Ac(a2-3)Gal(b1-4)GlcNAc(b1-2)Man(a1-3)[Neu5Ac(a2-6)Gal(b1-4)GlcNAc(b1-2)Man(a1-6)]Man(b1-4)GlcNAc(b1-4)GlcNAc
# Procedure, shortened: as §1
# [24] = molecular target: Neu5Ac(a2-3)Gal(b1-4)GlcNAc(b1-2)[Neu5Ac(a2-3)Gal(b1-4)GlcNAc(b1-4)]Man(a1-3)[GlcNAc(b1-4)][Neu5Ac(a2-3)Gal(b1-4)GlcNAc(b1-2)[Neu5Ac(a2-3)Gal(b1-4)GlcNAc(b1-6)]Man(a1-6)]Man(b1-4)GlcNAc(b1-4)GlcNAc
# Procedure, shortened: as §1
# [25] = molecular target: Neu5Ac(a2-3)Gal(b1-4)GlcNAc(b1-2)[Neu5Ac(a2-3)Gal(b1-4)GlcNAc(b1-4)]Man(a1-3)[GlcNAc(b1-4)][Neu5Ac(a2-3)Gal(b1-4)GlcNAc(b1-4)Man(a1-6)]Man(b1-4)GlcNAc(b1-4)GlcNAc
# Procedure, shortened: as §1
# [26] = molecular target: Neu5Ac(a2-3)Gal(b1-4)GlcNAc(b1-2)[Neu5Ac(a2-3)Gal(b1-4)GlcNAc(b1-6)]Man(a1-6)[Neu5Ac(a2-3)Gal(b1-4)GlcNAc(b1-2)Man(a1-3)][GlcNAc(b1-4)]Man(b1-4)GlcNAc(b1-4)GlcNAc
# Procedure, shortened: as §1
# [27] = molecular target: Neu5Ac(a2-3)Gal(b1-4)GlcNAc(b1-3)Gal
# Procedure, shortened: as §1
# [28] = molecular target: Neu5Ac(a2-3)Gal(b1-4)GlcNAc(b1-3)Gal(b1-3)GlcNAc
# Procedure, shortened: as §1
# [29] = molecular target: Neu5Ac(a2-3)Gal(b1-4)GlcNAc(b1-3)Gal(b1-4)GlcNAc
# Procedure, shortened: as §1
# [30] = molecular target: Neu5Ac(a2-3)Gal(b1-4)GlcNAc(b1-3)Gal(b1-4)GlcNAc(b1-2)Man(a1-3)[Neu5Ac(a2-3)Gal(b1-4)GlcNAc(b1-3)Gal(b1-4)GlcNAc(b1-2)Man(a1-6)]Man(b1-4)GlcNAc(b1-4)GlcNAc
# Procedure, shortened: as §1
# [31] = molecular target: Neu5Ac(a2-3)Gal(b1-4)GlcNAc(b1-3)Gal(b1-4)GlcNAc(b1-3)Gal(b1-4)GlcNAc
# Procedure, shortened: as §1
# [32] = molecular target: Neu5Ac(a2-3)Gal(b1-4)GlcNAc(b1-3)Gal(b1-4)GlcNAc(b1-3)Gal(b1-4)GlcNAc(b1-2)Man(a1-3)[Neu5Ac(a2-3)Gal(b1-4)GlcNAc(b1-3)Gal(b1-4)GlcNAc(b1-3)Gal(b1-4)GlcNAc(b1-2)Man(a1-6)]GalNAc
# Procedure, shortened: as §1
# [33] = molecular target: Neu5Ac(a2-3)Gal(b1-4)GlcNAc(b1-3)Gal(b1-4)GlcNAc(b1-3)GalNAc
# Procedure, shortened: as §1
# [34] = molecular target: Neu5Ac(a2-3)Gal(b1-4)GlcNAc(b1-3)Gal(b1-4)GlcNAc(b1-3)[Neu5Ac(a2-3)Gal(b1-4)GlcNAc(b1-3)Gal(b1-4)GlcNAc(b1-6)]GalNAc
# Procedure, shortened: as §1
# [35] = molecular target: Neu5Ac(a2-3)Gal(b1-4)GlcNAc(b1-3)Gal(b1-4)GlcNAc(b1-6)[Gal(b1-3)]GalNAc
# Procedure, shortened: as §1
# [36] = molecular target: Neu5Ac(a2-3)Gal(b1-4)GlcNAc(b1-3)Gal(b1-4)[Fuc(a1-3)]GlcNAc
# Procedure, shortened: as §1
# [37] = molecular target: Neu5Ac(a2-3)Gal(b1-4)GlcNAc(b1-3)GalNAc
# Procedure, shortened: as §1
binder,measurement,setting,value
"Erv41-EDTA (Saccharomyces cerevisiae), Q04651 (protein) MKFLVNVALVFMVVYISYIYAAAPEHHHHHHDYDIPTTENLYFQGAMGYIDQQYVVDSQVRDTVQINMDIYVNTKCDWLQINVRDQTMDRKLVLEELQLEEMPFFIPYDTKVNDINEIITPELDEILGEAIPAEFREKLDTRSFFDESDPNKAHLPEFNGCHVFGSIPVNRVSGELQITAKSLGYVASRKAPLEELKFNHVINEFSFGDFYPYIDNPLDNTAQFNQDEPLTTYVYYTSVVPTLFKKLGAEVDTNQYSVNDYRYLYKDVAAKGDKMPGIFFKYNFEPLSIVVSDVRL",glycan array binding signal (z-score),[1],-0.019
same,glycan array binding signal (z-score),[2],0.976
same,glycan array binding signal (z-score),[3],-0.506
same,glycan array binding signal (z-score),[4],0.671
same,glycan array binding signal (z-score),[5],-0.15
same,glycan array binding signal (z-score),[6],-1.08
same,glycan array binding signal (z-score),[7],0.97
same,glycan array binding signal (z-score),[8],0.255
same,glycan array binding signal (z-score),[9],0.614
same,glycan array binding signal (z-score),[10],0.137
same,glycan array binding signal (z-score),[11],-0.387
same,glycan array binding signal (z-score),[12],0.337
same,glycan array binding signal (z-score),[13],-0.03
same,glycan array binding signal (z-score),[14],-0.386
same,glycan array binding signal (z-score),[15],-0.609
same,glycan array binding signal (z-score),[16],0.557
same,glycan array binding signal (z-score),[17],-0.585
same,glycan array binding signal (z-score),Neu5Ac(a2-3)Gal(b1-4)Glc,-1.16
same,glycan array binding signal (z-score),[18],-0.795
same,glycan array binding signal (z-score),[19],-0.089
same,glycan array binding signal (z-score),[20],-0.37
same,glycan array binding signal (z-score),[21],-0.57
same,glycan array binding signal (z-score),[22],2.09
same,glycan array binding signal (z-score),[23],0.453
same,glycan array binding signal (z-score),[24],1.18
same,glycan array binding signal (z-score),[25],-0.72
same,glycan array binding signal (z-score),[26],0.255
same,glycan array binding signal (z-score),[27],-0.318
same,glycan array binding signal (z-score),[28],0.192
same,glycan array binding signal (z-score),[29],-0.066
same,glycan array binding signal (z-score),[30],0.362
same,glycan array binding signal (z-score),[31],-1.18
same,glycan array binding signal (z-score),[32],1.38
same,glycan array binding signal (z-score),[33],0.658
same,glycan array binding signal (z-score),[34],1.02
same,glycan array binding signal (z-score),[35],0.253
same,glycan array binding signal (z-score),[36],0.856
same,glycan array binding signal (z-score),[37],-0.185

# A different layout for part of the listing above:
binder	measurement	setting	value
Erv41-EDTA (Saccharomyces cerevisiae), Q04651 (protein) MKFLVNVALVFMVVYISYIYAAAPEHHHHHHDYDIPTTENLYFQGAMGYIDQQYVVDSQVRDTVQINMDIYVNTKCDWLQINVRDQTMDRKLVLEELQLEEMPFFIPYDTKVNDINEIITPELDEILGEAIPAEFREKLDTRSFFDESDPNKAHLPEFNGCHVFGSIPVNRVSGELQITAKSLGYVASRKAPLEELKFNHVINEFSFGDFYPYIDNPLDNTAQFNQDEPLTTYVYYTSVVPTLFKKLGAEVDTNQYSVNDYRYLYKDVAAKGDKMPGIFFKYNFEPLSIVVSDVRL	glycan array binding signal (z-score)	[17]	-0.585
same	glycan array binding signal (z-score)	Neu5Ac(a2-3)Gal(b1-4)Glc	-1.16
same	glycan array binding signal (z-score)	[18]	-0.795
same	glycan array binding signal (z-score)	[19]	-0.089
same	glycan array binding signal (z-score)	[20]	-0.37
same	glycan array binding signal (z-score)	[21]	-0.57
same	glycan array binding signal (z-score)	[22]	2.09
same	glycan array binding signal (z-score)	[23]	0.453
same	glycan array binding signal (z-score)	[24]	1.18
same	glycan array binding signal (z-score)	[25]	-0.72
same	glycan array binding signal (z-score)	[26]	0.255
